Results deposited as PubChem BioAssay AID1224830 (NIAID, 2016).

- Test: 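Genes whose knock-down alters the TNF-alpha reporter response to LPS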 (primary screen)
- System: human THP-1 monocytic leukaemia cells, TNF dual-luciferase reporter clone, PMA-differentiated to macrophage-like cells
- Knock-down reagent: siRNA pool against human genes, 50 nM
- Timing: LPS for 4 h, given about 3 days after siRNA transfection
- Conditions: bacterial LPS (TLR4 ligand), 10 ng/ml
- Read-out: 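Ratio of firefly to renilla light, scaled to the plate median and expressed as a robust z-score per replicate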
- Scale: TNF reporter robust z-score: higher = stronger TNF reporter response to LPS
- Hit rule: 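a well is active when its z-score exceeds 2.8 or falls below -1.5; control wells carry no call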
The deposit covers about 18,000 reagents; this is a part drawn at random. Of all reagents, about 2,900 (16%) were called active. 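Calls are made per well; low scores hint the gene aids the LPS response, high scores that it dampens it.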 Entries without a mark were called inactive. Repeated entries: four replicate wells of each siRNA pool.

SNRNP200 scored TNF reporter robust z-score -0.42.
SNRNP200 showed TNF reporter robust z-score -0.6.
For SNRNP200, the entry reads TNF reporter robust z-score 0.06.
Silencing of SNRNP200 gave: TNF reporter robust z-score 0.34.
Depletion of TRAPPC3 came out at: TNF reporter robust z-score -1.51 (active).
Against TRAPPC3 the deposit lists TNF reporter robust z-score -1.35.
Against TRAPPC3, the values are TNF reporter robust z-score -1.44.
Silencing of TRAPPC3 resulted in: TNF reporter robust z-score -1.49.
HTR1D showed TNF reporter robust z-score 0.61.
HTR1D gave TNF reporter robust z-score 0.93.
HTR1D scored TNF reporter robust z-score 0.67.
With knock-down of HTR1D, the screen gave TNF reporter robust z-score 1.33.

Reformatted: 3 of the entries above
TRAPPC3
- TNF reporter robust z-score: -1.35

TRAPPC3
- TNF reporter robust z-score: -1.44

TRAPPC3
- TNF reporter robust z-score: -1.49

Next reagents follow.
After knock-down of DUSP26, the screen gave TNF reporter robust z-score 0.25.
Silencing of DUSP26 came out at: TNF reporter robust z-score -0.09.
After knock-down of DUSP26, the record shows TNF reporter robust z-score 0.58.
After knock-down of DUSP26, the record shows TNF reporter robust z-score 0.93.
Depletion of KNL1 gave: TNF reporter robust z-score -0.85.
KNL1 gave TNF reporter robust z-score -0.08.
Silencing of KNL1 came out at: TNF reporter robust z-score -0.4.
KNL1 gave TNF reporter robust z-score 2.79.
